The subject of this data set is middle-aged mice. Briefly: contextual serial discrimination (CSD) task, contextual memory. The format is in vivo, C57/Bl6 mice. Conditions: for effect on total number of head-dips, test phase: Experiment 1, middle-aged mice, 9 days oral, all levels pooled of the other drug; for total number of head-dips, test phase: Experiment 2, middle-aged mice, mean ± SEM. The source says:
The memory task and apparatus has been fully described previously ([Chauveau et al., 2009]). The contextual serial discrimination (CSD) task is based on two successive discriminations in a four-hole board which can be retrieved with the help of specific temporal and contextual cues associated with each of them.
The acquisition phase took place in room A where animals learned two consecutive spatial discriminations (D1 and D2; Figure 1A) which differed by the color and texture of the floor and were separated by a 2-min delay interval. For both D1 and D2, 10 20-mg food pellets were available during the 6-min exploration sessions; for D2 specifically, the baited hole was consistently located in the opposite symmetrical hole. Environmental cues made of colored paper sheets were positioned at 1.00 m above the board. At the end of the acquisition phase, mice returned in the animal’s room for 24 h. Animals retained for the test phase in the present study for both Experiments 1 and 2 have eaten at least 7–8 pellets/10 during both acquisitions.
Mice were replaced on the D1 floor in the board without any pellet in the apparatus and were allowed to freely explore for 6 min during which the number of head-dips in each hole was counted. This allowed measures of the % of “correct responses” (head-dips into the hole previously baited on the same floor-context), the % of “interference responses” (head-dips into the hole previously baited at D2, on the other floor-context) (Figure 1B) and of the “strength” of “contextual memory” score (SCM) (% correct responses - % interference responses). Thus, since correct responses are based on the use of the internal context (color of the floor) and interferent responses are based on the use of spatial allocentric cues previously associated with the other floor, thus the trend of SCM score toward a positive difference represents the gain of internal contextual memory, at the expense of allocentric spatial one.
The two last administrations were delivered 1 h before the acquisition and test phases.
Independent groups of mice (N = 10 per group) were used. An additional group composed by young vehicle mice (4–5 months young-vehicles, N = 10) was added for determination of the aging effect on both memory and phosphorylated CREB immunoreactivities, as compared to middle-aged Vehicles. For the immunohistochemical study, animals submitted to D1 memory testing were compared to “naïve” mice isolated in the colony room (with N = 5 per group; Naïve condition) and that underwent the food deprivation procedure and drug treatments as behaving animals (Test condition).

On to `COc1cc2c(cc1OC)C(=O)C(CC1CCN(Cc3ccccc3)CC1)C2` (centres unmarked) [Donepezil, reference compound], for which the “effect on total number of head-dips, test phase” value is on record as “no significant effect”. Also, the “total number of head-dips, test phase” value (Donepezil 0.3 mg/kg alone) is listed as 23.90 ± 4.06.
In the case of `NC(=O)c1ccc(OCCCN2CC3CCCC3C2)cc1` (centres unmarked) [S 38093], the “effect on total number of head-dips, test phase” value is given as “no significant effect”. In addition, the “total number of head-dips, test phase” value (S 38093 0.1 mg/kg alone) is 37.4 ± 6.15. Moreover, the “total number of head-dips, test phase” value (S 38093 0.3 mg/kg alone) is 44.90 ± 6.56.

(Values after publication PMC5177663 (Frontiers in Pharmacology, 2016).)
